{"source": "patent US20220324936", "about": "(published 2022)", "assay": "general procedure: Fmoc solid-phase peptide synthesis; CTC resin; DIC/OxymaPure", "details": "whole synthesis", "note": "Non-standard residues stand in square brackets, D forms with d. *: point of attachment. His(Trt) = N[C@@H](Cc1cn(C(c2ccccc2)(c2ccccc2)c2ccccc2)cn1)C(=O)O; Gln(Trt) = N[C@@H](CCC(=O)NC(c1ccccc1)(c1ccccc1)c1ccccc1)C(=O)O; Boc = CC(C)(C)OC(=O)*; tBu = CC(C)(C)*", "data": [{"substance": "Boc-[His(Trt)]S(tBu)[Gln(Trt)]G-OH", "values": [{"measurement": "crude mass", "result": 2.4, "unit": "g"}, {"measurement": "crude HPLC purity", "setting": "HPLC, scale of the general procedure 1 gram of starting resin each", "result": 97, "unit": "%"}, {"measurement": "crude yield", "setting": "molar yield, scale of the general procedure 1 gram of starting resin each", "result": 91.6, "unit": "%"}]}]}
